# Reference: PubChem BioAssay AID540256 (National Center for Advancing Translational Sciences (NCATS), 2011)
# Hit rate of the full screen: of about 300,000 compounds, about 3,700 (1.2%) were called active. Inconclusive results, whose numbers are uncertain, are shown with a selection of clear calls. The call rests on the fitted dose curve; tested in HEK293 cells. Where the call is inconclusive, the potency comes from a doubtful curve fit.
# Assay: qHTS for Inhibitors of binding or entry into cells for Lassa Virus; further: nearly all actives have a fitted effect of over 50% in size
# Settings: Lassa virus pseudotype entry inhibition, cell reporter; series mostly up to 37.9 µM
# Potency means the concentration at half of the fitted maximal effect.
row,SMILES,Potency
1,CCOc1ccc(-c2onc(C(F)(F)F)c2-c2cscn2)c(O)c1,inactive
2,COc1ccc(CCn2c(-c3ccc(C(C)(C)C)cc3)n[nH]c2=S)cc1OC,"inconclusive: 20 µM [inhibitor, partial curve, poor fit]"
3,CC(CCc1ccco1)NC(=O)Nc1cccc(F)c1 (stereo not drawn),"inconclusive: 0.13 µM [activator, full curve, poor fit]"
4,O=C(NCc1ccccc1Cl)c1cc2ccccc2oc1=O,inactive
5,C=CCN(CC=C)C(=O)c1ccc(OC2CCN(S(=O)(=O)N(C)C)CC2)cc1,"inconclusive: 1.12 µM [inhibitor, single point]"
6,CSc1nc(SCC(=O)NC(c2ccccc2)c2ccccc2)c2c3c(sc2n1)CN(C)CC3,"inconclusive: 32.6 µM [inhibitor, single point]"
7,C=CC1CC2C=CCOP(=S)(O1)O2 (stereo not drawn),"inconclusive: 0.0112 µM [activator, full curve, poor fit]"
8,COc1ccc(CC(=O)NNc2ncnc3c2cnn3C)cc1,"inconclusive: 8.91 µM [activator, partial curve, poor fit]"
9,O=C(CN1CCC(C(O)(c2ccccc2)c2ccccc2)CC1)Nc1ccccc1,"inconclusive: 1.3 µM [inhibitor, full curve, poor fit]"
10,CCc1nnc2c3ccccc3nc(N3CCN(c4cc(C)ccc4C)CC3)n12,"inconclusive: 5.62 µM [inhibitor, single point]"
11,CCc1cccc(C)c1NS(=O)(=O)c1cc(Br)cnc1N,"inconclusive: 10 µM [inhibitor, partial curve, poor fit]"
12,C=CCc1cc(/C=C2/NC(=O)N(CC)C2=O)cc(OCC)c1OCc1ccc(C(=O)O)cc1,"inconclusive: 8.2 µM [inhibitor, partial curve, poor fit]"
13,COc1ccc(-c2cc(C3CCN(C(=O)OC(C)(C)C)CC3)[nH]n2)cc1,"inconclusive: 10 µM [inhibitor, partial curve, poor fit]"
14,CCCN(CCC)C(=O)C1CCCN(c2ncnc3c2nc2n3CCCCC2)C1 (stereo not drawn),"inconclusive: 20 µM [inhibitor, partial curve, poor fit]"
15,O=C(CSc1ncc2c(n1)-c1ccc(Cl)cc1N(Cc1ccccc1)S2(=O)=O)Nc1ccccc1C(F)(F)F,inactive
16,Cc1c2c(nc3ccccc13)CC(C)(C)CC2=O,"inconclusive: 20 µM [inhibitor, single point]"
17,c1ccc(-c2cnc(SCCN3CCOCC3)n2CC2CCCO2)cc1 (stereo not drawn),"inconclusive: 0.708 µM [inhibitor, partial curve, poor fit]"
18,CC(C)(C)c1ccc(-c2nc(NCc3cccnc3)c3ccccc3n2)cc1,"inconclusive: 20.6 µM [activator, single point]"
19,Cc1cccc(/C=C/c2onc(C)c2S(=O)(=O)N2CCC(C(=O)N3CCCCCC3)CC2)c1,"inconclusive: 6.31 µM [inhibitor, full curve, poor fit]"
20,COc1ccccc1N1CC(O)=C(c2nc3ccccc3s2)C1=N,"inconclusive: 32.6 µM [inhibitor, partial curve, poor fit]"
21,Cc1c(C(=O)NCc2ccc(F)cc2)sc2nc(-c3ccc(F)cc3)cn12,inactive
22,Cc1ccc(O)c(NC(=O)c2cc(-c3cccs3)on2)c1,inactive

row,SMILES,Potency
1,COc1ccc(CCNC(=O)Cn2c(=O)c3cccn3c3ccccc32)cc1OC,"inconclusive: 11.2 µM [inhibitor, partial curve, poor fit]"
2,CC1CCCC(C)N1C(=O)Cn1cnc2cc([N+](=O)[O-])ccc2c1=O (stereo not drawn),"inconclusive: 1.26 µM [inhibitor, single point]"
3,Cc1ccc(NC(=O)[C@@H](c2ccccc2)N2Cc3ccccc3C2=O)cc1F,inactive
4,CCN(CC)c1ccc(NC(=O)c2cnc3ccccn3c2=O)c(C)c1,inactive
5,Cc1ccc(-c2nn(-c3ccccc3)cc2/C=N/NC(=O)CSc2nnc(C)n2-c2ccccc2)cc1,"inconclusive: 35.5 µM [inhibitor, single point]"
6,CC(C)N(C(C)C)S(=O)(=O)c1ccc(N2CCc3ccccc3C2)nc1,inactive
7,CCC(=O)Nc1cc2nn(-c3ccc(C)cc3)nc2cc1C,"inconclusive: 0.562 µM [inhibitor, full curve, poor fit]"
8,Clc1ccc(-c2cn3c(n2)-c2ccccc2C3)cc1Cl,"inconclusive: 11.2 µM [inhibitor, single point]"
9,Cn1cnc(S(=O)(=O)N2CCN(C(c3ccccc3)c3ccccc3)CC2)c1,"inconclusive: 25.1 µM [inhibitor, partial curve, poor fit]"
10,COc1ccccc1-n1c(=O)oc2ccc(Cl)cc2c1=O,"inconclusive: 22.4 µM [inhibitor, single point]"
11,N#C/C(=C/c1cccs1)c1nc2ccccc2[nH]1,inactive
12,O=C(CSC1=NCCS1)Nc1nc2c(s1)CCCC2,inactive
13,O=C(COC(=O)c1ccccc1)Nc1cccc(S(=O)(=O)NC2=NCCCCC2)c1,"inconclusive: 4.47 µM [activator, single point]"
14,COc1ccc(CC(=O)Nc2cccc(-c3nnc(-c4ccco4)o3)c2)cc1,"inconclusive: 3.16 µM [inhibitor, single point]"
15,COc1cccc(Cn2c(NCc3ccco3)nc3c2c(=O)n(C)c(=O)n3C)c1,"inconclusive: 16.4 µM [inhibitor, partial curve, poor fit]"
16,CCOC(=O)Cn1c(=O)n(CC2CCCO2)c2nc(-c3c(F)cccc3Cl)nc(C(N)=O)c21 (stereo not drawn),inactive
17,Cc1ccccc1-n1c(=O)/c(=C\c2ccco2)s/c1=C(/C#N)C(=O)Nc1ccccc1,inactive
18,O=C(NC1CCC(O)CC1)c1ccc(-c2ccc(Cl)cc2)o1 (stereo not drawn),"inconclusive: 2.24 µM [inhibitor, partial curve, poor fit]"
19,CCc1ccccc1NS(=O)(=O)c1cc(Br)cc2c1N(C(=O)C1CC1)CC2,inactive
20,O=C(NCc1cccs1)C(=O)c1cn(CC(=O)N2CCOCC2)c2ccccc12,inactive
21,Cc1ccc(N2C(=O)c3ccc(C(=O)O)cc3C2=O)cc1C,inactive

# Of the compounds above, these contain a COOH group.
row,SMILES,Potency
12,C=CCc1cc(/C=C2/NC(=O)N(CC)C2=O)cc(OCC)c1OCc1ccc(C(=O)O)cc1,"inconclusive: 8.2 µM [inhibitor, partial curve, poor fit]"
21,Cc1ccc(N2C(=O)c3ccc(C(=O)O)cc3C2=O)cc1C,inactive
